Whole data set: some 33,000 sequences, median “E-score (-0.5 to 0.5)” near -0.0034, cut for the highest 2% near 0.25. Some of the results follow.
target: T1, Yap3 (UniProt P38749); experiment: PBM E-score (8-mer binding enrichment) (E-score (-0.5 to 0.5)); higher = stronger / more preferred TF binding; conditions: protein concentration: 100 nM; construct: GST-full length
T1 sequence: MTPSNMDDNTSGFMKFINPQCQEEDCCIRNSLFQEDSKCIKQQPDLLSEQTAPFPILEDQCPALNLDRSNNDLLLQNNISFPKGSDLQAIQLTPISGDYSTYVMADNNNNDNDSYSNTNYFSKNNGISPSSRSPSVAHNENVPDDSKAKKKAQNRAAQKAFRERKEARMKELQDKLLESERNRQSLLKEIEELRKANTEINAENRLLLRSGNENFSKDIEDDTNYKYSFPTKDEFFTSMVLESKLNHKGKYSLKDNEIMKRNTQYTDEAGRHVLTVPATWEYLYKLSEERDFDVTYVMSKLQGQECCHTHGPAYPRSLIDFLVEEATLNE
Outline: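 Full-length yeast transcription factors or their DNA-binding domains, GST-tagged and expressed with PURExpress, were applied at about 100-200 nM to universal all-10-mer Agilent arrays. These arrays had been made double-stranded by primer extension on fresh or once-stripped slides. Detection used fluorescent anti-GST, normalisation used masliner, and E-scores for ungapped eight-base words pooled with reverse complements came from the Universal PBM Analysis Suite.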

| Sequence | PBM E-score |
| --- | --- |
| TGGCACCA | -0.233 |
| GACCGCAC | -0.108 |
| AGCGCGAT | 0.103 |
| GCAGTCCA | -0.0876 |
| ATTGTGGG | -0.00325 |
| ATTCTGCA | 0.191 |
| ATCTGGGC | -0.18 |
| GCTCCGAC | -0.0921 |
| CCAAACCG | -0.00088 |
| GTCAAGAC | -0.264 |
| ACCTAAAG | -0.028 |
| AGACGTTC | 0.0209 |
| ATGCGCCA | 0.00516 |
| AACTCTAC | -0.125 |
| ACAAGTAG | -0.0752 |
| AGGGAGAA | -0.212 |
| CAACCAAA | 0.118 |
| CCTCTTAA | 0.0653 |
| CATTGCTA | 0.117 |
| CCACTACA | 0.001 |
| AGTAAGCC | -0.00081 |
| CCAATTCG | 0.0968 |
| AAGGTCTG | -0.0756 |
| ATTTCGCA | 0.17 |
| CCCAAAGG | -0.2 |

Looked up above:
GACCGCAC | PBM E-score: -0.108
GCTCCGAC | PBM E-score: -0.0921
CCTCTTAA | PBM E-score: 0.0653
ACCTAAAG | PBM E-score: -0.028

Further entries follow:

| Sequence | PBM E-score |
| --- | --- |
| CTCACATC | 0.0384 |
| CGTAAGTA | 0.13 |
| AGATAAGC | -0.0117 |
| TCCTTTCA | 0.062 |
| AGTAAAGC | 0.0886 |
| CATATATA | 0.227 |
| GAGCTACA | -0.202 |
| AGGGACCC | -0.244 |
| CGCCGTTC | 0.00858 |
| CCTGAGAC | -0.185 |
| ACGATCGG | 0.103 |
| AGACAATG | 0.0142 |
| AACCGCCG | 0.00187 |
| AACAGGAC | -0.0617 |
| GATAATGA | 0.213 |
| GACCCATA | 0.00299 |
| AACCGTTA | -0.0804 |
| GTGCAATA | 0.0948 |
| AAATGCGC | 0.136 |
| ACTCACGC | -0.112 |
| GGTCATCA | -0.00149 |
| CATCGTAA | 0.0529 |
| ACTCTATA | 0.0769 |
| AAGAAAGT | 0.233 |
| AGGTGTCC | -0.0437 |

| Sequence | PBM E-score |
| --- | --- |
| GCCGATTA | 0.0944 |
| GCGTCAGA | -0.0584 |
| AACTACTA | 0.244 |
| ACATCACA | 0.083 |
| CCTACTAC | -0.17 |
| CCAGGCCC | -0.235 |
| ATTGCCCC | 0.158 |
| ATCCCAAA | 0.0661 |
| TCAATCGA | 0.112 |
| ACGTAGTG | 0.0166 |
| AGACGCCT | -0.138 |
| GATTACCA | 0.153 |
| CATTAGGG | -0.0667 |
| AAAGTAGT | 0.0701 |
| CAGAGTGG | -0.129 |
| AGAAACAG | 0.106 |
| AGGCCAGG | -0.144 |
| AAGACGCC | -0.0305 |
| CTAATATA | 0.235 |
| ATCAAAAG | 0.122 |
| CCTCGTAC | 0.00719 |
| AACTTTTA | 0.113 |
| CCTAGGTC | -0.038 |
| ATGAGTAC | 0.0895 |
| GGCCTACC | -0.057 |

| Sequence | PBM E-score |
| --- | --- |
| GCCGTGCA | -0.0679 |
| TAACTGGA | -0.0224 |
| GGAACCCC | -0.141 |
| CTGACAAG | 0.154 |
| GCTTTACC | 0.038 |
| CCTCAAAA | 0.0175 |
| CTGTCAAG | -0.179 |
| ACACACGG | -0.233 |
| GCGCACCC | -0.174 |
| GCCTGAAA | 0.0756 |
| CAACGCAG | -0.195 |
| ATGCTGAG | -0.202 |
| GAATAACC | 0.022 |
| AACCGACC | 0.0586 |
| GACGCTCC | -0.149 |
| CATGCTAA | 0.0237 |
| GAACGTGA | 0.0804 |
| GCCTCGTA | 0.141 |
| ACCCTTTC | -0.0194 |
| ACAGACGC | -0.168 |
| CACCTGCA | -0.121 |
| GTAGCCGA | -0.114 |
| CACGTCTC | -0.149 |
| ATAAACCG | 0.122 |
| CTAATGCA | 0.0852 |

| Sequence | PBM E-score |
| --- | --- |
| CGTCGGAG | -0.0637 |
| GGGCGCCC | -0.218 |
| CCGCTGAC | -0.0647 |
| AGTGAAAA | 0.0751 |
| ACCTAGGT | -0.0918 |
| CCCGCACG | -0.0849 |
| ACTAGACT | -0.167 |
| AGTGTCAA | 0.0121 |
| ACGGTGCC | -0.249 |
| ACAAAGTC | -0.01 |
| CAGATATC | -0.00255 |
| CGGGACCG | -0.156 |
| GTATCGCA | -0.024 |
| GAATCACC | 0.0519 |
| ATGAGCAT | 0.164 |
| CCGCCTGA | -0.0912 |
| AATAAGCC | 0.0794 |
| CGCAGTTA | 0.0484 |
| ACTGGTCT | -0.158 |
| TAAGACGA | 0.0274 |
| ATGAGAAA | 0.181 |
| AGCGATGA | 0.108 |
| CAGGTTTA | 0.0534 |
| AATCCGAT | 0.142 |
| GCAAACTA | 0.15 |

| Sequence | PBM E-score |
| --- | --- |
| CAGAAACA | 0.139 |
| AGCGGTTC | -0.0274 |
| ACACCTAA | 0.0904 |
| ACGGAATG | -0.00455 |
| GGACTGAA | 0.0634 |
| CCAGTGTC | -0.1 |
| ATCAAGCC | 0.0575 |
| AAAGTGGT | 0.064 |
| ACACATAC | 0.0464 |
| TCATAAAA | 0.128 |
| AAGCCCTC | -0.227 |
| CCGCGGGC | -0.0372 |
| CTAAATGA | -0.0077 |
| ACTTGAAG | -0.0435 |
| CGTGCCGC | -0.0418 |
| ACACTGAG | -0.0767 |
| ATTCATCG | 0.0672 |
| ATCTCTGA | -0.0337 |
| CCTAACCG | -0.149 |
| GCTCTTCC | -0.222 |
| AAACCGAC | 0.117 |
| CAAAACGG | 0.0777 |
| CTCGAGCA | 0.0514 |
| ACAAGTGC | -0.182 |
| CGGCCTTA | -0.0179 |

Exported as tab-separated lines: part of the list above.
Sequence	PBM E-score
GGACTGAA	0.0634
AAAGTGGT	0.064
CTAAATGA	-0.0077
ACTTGAAG	-0.0435
ACACTGAG	-0.0767
AAACCGAC	0.117
CAAAACGG	0.0777

(continued)

| Sequence | PBM E-score |
| --- | --- |
| AGAATCAT | 0.076 |
| CTTCATCC | 0.027 |
| ACGGGGAA | -0.0267 |
| AAACCAGA | -0.0162 |
| ACAGATGA | 0.0243 |
| AACACCCT | -0.182 |
| GCGTGGCC | -0.3 |
| ATTGGTAA | 0.304 |
| AGCGATGC | -0.204 |
| CAAAAGCA | -0.00282 |
| AGCGAAGC | -0.215 |
| GTGAAAAC | -0.0189 |
| CATCACCC | -0.123 |
| GGAGCAAC | -0.104 |
| ACAGCGCT | -0.0874 |
| AAGTTGAC | -0.0409 |
| GAACCGAA | 0.0199 |
| GGGAAACC | 0.0323 |
| AAATCCGG | 0.0821 |
| CCGAGACC | -0.123 |
| GTACTATA | 0.194 |
| TTAATCAA | 0.148 |
| AACTTACG | 0.237 |
| CAGGAAAC | 0.137 |
| GCTATTAC | 0.137 |

| Sequence | PBM E-score |
| --- | --- |
| TAGCACTA | 0.0422 |
| ACAGTCTA | -0.0453 |
| CCACTTGA | 0.119 |
| GGGAATAC | 0.0659 |
| GGATGCCA | -0.204 |
| GGTCAGTA | -0.139 |
| GGTGATAA | 0.0163 |
| AGGTAAAT | 0.117 |
| CGGGGCTC | -0.21 |
| ACCAACCT | 0.0359 |
| CTAAACAA | 0.127 |
| ATCCCCCG | -0.0717 |
| CGTTAATC | 0.152 |
| CGAGGGGA | -0.25 |
| ACCATCAA | 0.133 |
| CCGTCAGC | -0.167 |
| GCCAGATA | -0.0308 |
| CTAATATC | 0.163 |
| CTCACTAA | -0.0789 |
| AGCATACG | -0.0333 |
| ATCCCACG | -0.0635 |
| CTTAGGTC | -0.0924 |
| AACTGCCA | -0.0467 |
| AGCGCATA | 0.112 |
| CCTTCGGA | -0.212 |

3 records drawn at random from the list so far, as already listed:

| Sequence | PBM E-score |
| --- | --- |
| ATCCCACG | -0.0635 |
| GGTCAGTA | -0.139 |
| CTAAACAA | 0.127 |

Continuation.

| Sequence | PBM E-score |
| --- | --- |
| CGCTCAGA | -0.133 |
| ACGTCATA | 0.156 |
| CCTATAGC | -0.0262 |
| TAAAGCTA | -0.0896 |
| AGTGCCCA | 0.0636 |
| CGCCGCTA | -0.109 |
| AGTCCTTG | -0.16 |
| GGACGGAC | -0.166 |
| GATGGCAA | 0.128 |
| AATACCGG | 0.133 |
| CGCAAGAA | 0.191 |
| CCGAGACG | -0.0916 |
| AACTGCCG | 0.00013 |
| GCAAGAAA | 0.161 |
| ATCGTATC | 0.106 |
| CATGGGAC | -0.0258 |
| CGACTTTC | -0.0265 |
| GCACAGTA | 0.0785 |
| GCAGGGCC | -0.275 |
